Measurements taken from PubChem BioAssay AID540256 (National Center for Advancing Translational Sciences (NCATS), 2011).
Out of some 300,000 compounds screened, about 3,700 (1.2%) were called active. Inconclusive results, whose numbers are uncertain, are shown with a selection of clear calls. The call rests on the fitted dose curve; tested in HEK293 cells. Potencies beside an inconclusive call are fits to weak or partial responses and may not hold up.

experiment: qHTS for Inhibitors of binding or entry into cells for Lassa Virus; conditions: Lassa virus pseudotype entry inhibition, cell reporter; activity change, negative = inhibition: at 37.9 µM (top of the series) unless noted; further: nearly all actives have a fitted effect of over 50% in size
On the % scale 0 is the no-effect control and ±100 the full control effect; potency means the concentration at half of the fitted maximal effect.

Row | SMILES | Potency | activity change, negative = inhibition
1 | Cc1ccccc1/C=C/c1nc2ccccc2c(=O)[nH]1 | inconclusive: 25.1 µM [inhibitor, single point] | –
2 | COc1cc(C(=O)Nc2ccc(NC(=O)c3ccco3)nc2)cc(OC)c1OC | inconclusive: 0.259 µM [inhibitor, single point] | –
3 | Cc1ccc(NS(=O)(=O)c2cc([N+](=O)[O-])ccc2NNC(=S)Nc2cc(C)ccc2C)c(C)c1 | active: 14.1 µM | –
4 | CCOC(=O)C1(CCOc2ccccc2)CCN(Cc2cccc3c2OCO3)CC1 | inconclusive: 35.5 µM [inhibitor, single point] | –
5 | O=S(=O)(Nc1ccc(-c2cn3ccsc3n2)cc1)c1ccc2c(c1)OCCO2 | – | inactive: -1.38%
6 | O=C1NC(=S)SC1=Cc1ccc(F)cc1 | inconclusive: 11.2 µM [activator, partial curve] | –
7 | CCN1CCc2c(sc(N)c2C#N)C1 | – | inactive: 7.9%
8 | COc1ccccc1Cn1c(-c2ccco2)nc2nc3ccccc3nc21 | inconclusive: 1.26 µM [inhibitor, partial curve] | –
9 | CN(CC(=O)NC(=O)NCc1ccccc1)Cc1ccc(Cl)c(Cl)c1 | inconclusive: 3.55 µM [inhibitor, full curve] | –
10 | CN(C(=O)c1ccc2c(c1)N(Cc1cccc(Cl)c1)C(=O)c1ccccc1S2(=O)=O)C1CCCCC1 | active: 10 µM | –
11 | CC(C)n1cnc2cc(NC(=O)c3ccco3)ccc21 | inconclusive: 10 µM [inhibitor, partial curve, poor fit] | –
12 | CCCn1c(N)nc2ccccc21 | – | inactive: 12.3%
13 | CC(=O)c1cccc(-n2c(CCC(=O)O)ccc2-c2ccc(C)cc2)c1 | inconclusive: 6.31 µM [inhibitor, single point] | –
14 | CC(C)c1cc(C(=O)N/N=C/C=C/c2ccccc2)n[nH]1 | – | inactive: -1.6%
15 | Cc1cccc2cc(CN(Cc3nnnn3C3CCCCC3)C3CCCC3)c3nnnn3c12 | inconclusive: 8.2 µM [inhibitor, partial curve, poor fit] | –
16 | Cc1nn(C)cc1/C=C/C(=O)c1cccs1 | – | inactive: 4.93%
17 | O=[N+]([O-])c1ccc(-c2nnc(-c3ccccc3)c(NCCCO)n2)cc1 | – | inactive: 8.4%
18 | O=C(COc1cc2oc(=O)c3c(c2cc1Cl)CCC3)Nc1ccc(CN2CCOCC2)cc1 | inconclusive: 35.5 µM [inhibitor, single point] | –
19 | CC(=O)NCC1CCCN(Cc2cn(-c3ccccc3F)nc2-c2cc(C)sc2C)C1 (stereo not drawn) | inconclusive: 20 µM [inhibitor, single point] | –
20 | COc1ccc2c(c1)[nH]c1c(=O)n(CCN(C)C)cnc12 | inconclusive: 11.6 µM [activator, partial curve] | –
21 | CCOC(=O)C1(CC2CC2)CCN(C(=O)c2cccnc2C)CC1 | – | inactive: -1.92% [at 46.1 µM]
22 | O=C(c1ccc(O)cc1)c1ccc(C(=O)c2ccc(O)cc2)cc1 | inconclusive: 14.1 µM [inhibitor, single point] | –
23 | Cc1ccc(CN2CCC(CNC(=O)c3cnn(-c4ccccc4Cl)c3C3CCN(C(=O)OC(C)(C)C)CC3)CC2)cc1 | inconclusive: 35.5 µM [inhibitor, single point] | –

Row | SMILES | Potency | activity change, negative = inhibition
24 | Cc1ccc(S(=O)(=O)N2CCCC(C(=O)N3CCCc4ccccc43)C2)cc1 (stereo not drawn) | inconclusive: 1.83 µM [inhibitor, partial curve, poor fit] | –
25 | O=C(CC1C(=O)NCCN1Cc1ccccn1)NCCc1ccccc1F (stereo not drawn) | – | inactive: 19%
26 | Cc1ccccc1Oc1nc2c(C)cccn2c(=O)c1/C=C(\C#N)C(=O)NC1CCS(=O)(=O)C1 (stereo not drawn) | active: 12.6 µM | –
27 | O=c1oc2ccccc2c(NCCc2ccccc2)c1[N+](=O)[O-] | inconclusive: 35.5 µM [inhibitor, single point] | –
28 | Cc1ccccc1NC(=O)c1cccc(S(=O)(=O)Oc2ccc([N+](=O)[O-])cc2)c1 | inconclusive: 3.26 µM [inhibitor, partial curve, poor fit] | –
29 | c1csc(-c2nn[nH]n2)c1 | inconclusive: 25.1 µM [activator, single point] | –
30 | COc1ccc([N+](=O)[O-])cc1NC(=S)NC(NC(=O)C(c1ccccc1)c1ccccc1)C(Cl)(Cl)Cl (stereo not drawn) | inconclusive: 25.1 µM [inhibitor, single point] | –
31 | Cc1ccc(Nc2c(-c3c[nH]c4ccccc34)nc3ccccn23)cc1 | inconclusive: 22.4 µM [inhibitor, single point] | –
32 | CCOC(=O)c1ccc(NC(=O)/C=C/c2cccs2)cc1 | inconclusive: 22.4 µM [inhibitor, single point] | –
33 | C/C(N)=C(/C#N)C(=O)CSc1ncnc2ccccc12 | inconclusive: 8.2 µM [inhibitor, partial curve, poor fit] | –
34 | COc1ccccc1C(=O)CN1C(=O)NC2(CCc3ccccc32)C1=O (stereo not drawn) | – | inactive: 0.769%
35 | O=C(COC(=O)CCc1nc2ccccc2s1)NC(=O)NCc1ccco1 | – | inactive: 16.8%
36 | COc1cc(-c2nc3ccc(C)cn3c2Nc2ccc3c(c2)OCCO3)ccc1O | – | inactive: -32%
37 | CCC1Sc2ccc(S(=O)(=O)Nc3ccc(OC)c(OC)c3)cc2NC1=O (stereo not drawn) | inconclusive: 12.6 µM [inhibitor, single point] | –
38 | CC(C)Cc1nc(SCc2cccnc2)c2c(=O)n(C)c(=O)n(C)c2n1 | inconclusive: 28.2 µM [inhibitor, partial curve, poor fit] | –
39 | CCOC(=O)C(CC)n1nnc2sc(-c3ccccc3)cc2c1=O (stereo not drawn) | inconclusive: 2.51 µM [activator, partial curve, poor fit] | –
40 | Cc1ccc(S(=O)(=O)N2CCC(C(=O)N3CC(C)OC(C)C3)CC2)cc1 (stereo not drawn) | – | inactive: 5.69%
41 | Cc1ccc(/C(N)=N/OC(=O)c2ccc3c(c2)OCO3)cc1 | inconclusive: 0.891 µM [inhibitor, single point] | –
42 | Cc1ccc(S(=O)(=O)N2CCCCC2)cc1C(=O)N(CCc1ccccc1)Cc1ccccc1 | inconclusive: 12.6 µM [inhibitor, single point] | –
43 | CCOc1ccc(NC(=O)CSc2cn(CCNC(=O)c3ccccc3F)c3ccccc23)cc1 | inconclusive: 3.98 µM [inhibitor, partial curve, poor fit] | –
44 | Cc1ccc(Oc2ncccc2NC(=O)CCCC(=O)O)c2c1CCC2 | inconclusive: 35.5 µM [activator, single point] | –
45 | COC(=O)c1ccc(NC(=O)c2cccc(OC)c2)cc1 | – | inactive: -21.5%
46 | CCc1ccccc1NC(=O)CSc1nncn2c1cc1oc(C)cc12 | – | inactive: 26.5% [at 46.1 µM]

Row | SMILES | Potency | activity change, negative = inhibition
47 | O=C(COC(=O)c1c2c(nc3ccccc13)CCN(Cc1ccccc1)C2)Nc1c(F)cccc1F | inconclusive: 7.94 µM [inhibitor, partial curve] | –
48 | COCCOC(=O)C1=C(C)NC(=O)NC1c1c(Cl)nc2c(C)cccn2c1=O (stereo not drawn) | – | inactive: 2.55%
49 | COc1ccc(CCNC(=O)c2ccc3c(c2)N(Cc2ccccc2)C(=O)c2ccccc2S3=O)cc1OC (stereo not drawn) | inconclusive: 0.794 µM [inhibitor, full curve, poor fit] | –
50 | O=c1[nH]nc(SCCS(=O)(=O)c2ccc(F)cc2)n1-c1ccccc1C(F)(F)F | inconclusive: 6.31 µM [inhibitor, single point] | –
51 | COc1ccc(CCNc2ncnc3c2nnn3Cc2ccccc2)cc1 | inconclusive: 4.47 µM [inhibitor, partial curve, poor fit] | –
52 | Cc1ccc(-n2ncc(C(=O)N3CCN(c4cc(Cl)ccc4C)CC3)c2C2CCN(C(=O)OC(C)(C)C)CC2)cc1 | inconclusive: 2.82 µM [inhibitor, single point] | –
53 | O=C(N/N=C/c1cccc(Cl)c1)c1c(O)c2c([nH]c1=O)CCCC2 | – | inactive: 19%
54 | NCCCCCc1nnc(SCc2ccccc2Cl)o1 | inconclusive: 9.2 µM [inhibitor, partial curve] | –
55 | CCOC(=O)c1c(NC(=O)C(C)Sc2cccc[n+]2[O-])sc2c1CCN(Cc1ccccc1)C2 (stereo not drawn) | inconclusive: 5.62 µM [inhibitor, single point] | –
56 | CS(=O)(=O)c1ccc(C(=O)NCCN2C(=O)S/C(=C\c3cccnc3)C2=O)cc1[N+](=O)[O-] | active: 20.6 µM | –
57 | COC(=O)c1c[nH]n2c(=O)c(Cl)c(C)nc12 | inconclusive: 1 µM [activator, single point] | –
58 | CCOc1ccc(CNC(=O)c2ccc3c(c2)c(C)c(C)n3Cc2ccccc2)cc1OC | – | inactive: -2.1% [at 46.1 µM]
59 | Cc1ccc(/C=C/C(=O)NN2CCN(C)CC2)cc1 | inconclusive: 35.5 µM [inhibitor, single point] | –
60 | CC1=C2C(CCS2(=O)=O)CC2(C1)C(=O)OC(C)(C)OC2=O (stereo not drawn) | inconclusive: 23.1 µM [activator, partial curve, poor fit] | –
61 | Cc1ccc(NC(=O)c2ccc(F)cc2)cc1S(=O)(=O)N1CCCCCC1 | inconclusive: 28.2 µM [inhibitor, partial curve, poor fit] | –
62 | CCCCCC(=O)Nc1ccccc1N1CCN(c2ccccc2)CC1 | inconclusive: 29.1 µM [inhibitor, single point] | –
63 | CCOc1ccc(NC(=O)c2c(Nc3ccccc3C)sc(C(=O)c3ccccc3)c2N)cc1 | inconclusive: 35.5 µM [inhibitor, single point] | –
64 | O=C(CN1C(=O)C2(SCC(=O)N2c2cccc(Cl)c2)c2ccccc21)NCCc1ccccc1 (stereo not drawn) | inconclusive: 35.5 µM [inhibitor, single point] | –
65 | CCN(CC)S(=O)(=O)c1ccc(NC(=O)CN(c2ccccc2)S(=O)(=O)N(C)C)cc1 | inconclusive: 5.01 µM [inhibitor, partial curve, poor fit] | –
66 | Cc1ccc2nc3c(nc2c1C)CCCC3 | – | inactive: 4.45%
67 | CC1=[N+](CC(=O)c2ccccc2)CCn2cccc21 | – | inactive: 14.4% [at 46.1 µM]
68 | CCOc1ccc(NC(=O)C(Cc2ccccc2)NS(=O)(=O)c2ccc3c(c2)oc(=O)n3C)cc1 (stereo not drawn) | – | inactive: 1.7% [at 46.1 µM]

Some values from the list:
activity change, negative = inhibition, `COC(=O)c1ccc(NC(=O)c2cccc(OC)c2)cc1` is entered as inactive: -21.5%
Potency, `Cc1ccccc1Oc1nc2c(C)cccn2c(=O)c1/C=C(\C#N)C(=O)NC1CCS(=O)(=O)C1` (stereo not drawn) is entered as active: 12.6 µM
Potency, `CCN(CC)S(=O)(=O)c1ccc(NC(=O)CN(c2ccccc2)S(=O)(=O)N(C)C)cc1` is entered as inconclusive: 5.01 µM [inhibitor, partial curve, poor fit]
Potency, `O=C(CN1C(=O)C2(SCC(=O)N2c2cccc(Cl)c2)c2ccccc21)NCCc1ccccc1` (stereo not drawn) is entered as inconclusive: 35.5 µM [inhibitor, single point]
